The values that follow come from patent publication US20170369529A1 (Hoffmann-La Roche Inc., priority 2014, published 2017).

This data set can be described thus: general procedure: Fmoc solid-phase peptide synthesis; Fmoc-Rink Amide MBHA resin; HBTU or DIC, with HOBT (embodiment). The conditions noted are these: whole synthesis, scale 0.1 mmol, TFA salt.

For the substance “Fluo-Met-Ile-Ile-Leu-Ile-Ile-Gly-Ser-Thr-Ser-Arg-Asp-His-Met-Val-Leu-His-Glu-Tyr-Val-Asn-Ala-Ala-Gly-Ile-Thr-NH2 (MIILIIGSTSRDHMVLHEYVNAAGIT; N-terminal fluorescein, C-terminal amide; /note=“N-term Fluo”; /note=“C-term NH2”)”, the crude mass result was “˜190 mg”. Moreover, the “final HPLC purity” value (analytical HPLC (Agilent 1200), TFA buffer system) is “>=99%”.
